PubChem BioAssay AID743121 – NCATS | 2013
Test: 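Partners whose loss is lethal together with topoisomerase I blockade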 (primary screen). Cells: MDA-MB-231 cells, a human breast cancer line. Knock-down reagent: single siRNA against human genes, 20 nM siRNA (0.8 pmol per well). Duration: 120 h (drug added 48 h after transfection, read 72 h later). Treatment: camptothecin 20 nM (about EC30) for 72 h; vehicle 0.1% DMSO in parallel plates. Read-out: 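Cell viability by ATP luminescence (CellTiter-Glo) as % of non-targeting siRNA wells, and the log2 ratio of viability without drug over viability with camptothecin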. Scale: log2 vehicle/camptothecin viability: higher = stronger sensitisation to camptothecin. Call rule: 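Each gene scored by redundant siRNA activity (RSA) over its individual siRNA ratios; a gene is called active at p < 0.001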.
Here is an unselected part of about 26,000 reagents. 167 of them (0.63%) count as active. 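Calls are per gene from RSA p-values that are not deposited; an individual active-marked siRNA can sensitise only weakly.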 The numbers tell different reagents against one gene apart. Further read-outs or replicates are left out here.

Knock-down of GAK (cyclin G associated kinase) #1 came out at: log2 vehicle/camptothecin viability -0.586; inactive.
Against GAK (cyclin G associated kinase) #2 the deposit lists log2 vehicle/camptothecin viability -0.455; inactive.
Against GAK (cyclin G associated kinase) #3 the deposit lists log2 vehicle/camptothecin viability -0.5; inactive.
GAK (cyclin G associated kinase) #4 gave log2 vehicle/camptothecin viability -0.392; inactive.
IFNA7 (interferon alpha 7) #1 scored log2 vehicle/camptothecin viability -0.134; inactive.
With knock-down of IFNA7 (interferon alpha 7) #2 the results were log2 vehicle/camptothecin viability -0.293; inactive.
After knock-down of IFNA7 (interferon alpha 7) #3, the record shows log2 vehicle/camptothecin viability 0.0437; inactive.
GABRB2 (gamma-aminobutyric acid type A receptor subunit beta2) #1 showed log2 vehicle/camptothecin viability -0.296; inactive.
For GABRB2 (gamma-aminobutyric acid type A receptor subunit beta2) #2, the entry reads log2 vehicle/camptothecin viability -0.416; inactive.
GABRB2 (gamma-aminobutyric acid type A receptor subunit beta2) #3 scored log2 vehicle/camptothecin viability -0.444; inactive.
GABRB2 (gamma-aminobutyric acid type A receptor subunit beta2) #4 scored log2 vehicle/camptothecin viability -0.0657; inactive.

Reformatted: entries from further up
| Target gene | siRNA no. | log2 vehicle/camptothecin viability | activity call |
| --- | --- | --- | --- |
| GAK (cyclin G associated kinase) | 1 | -0.586 | inactive |
| GAK (cyclin G associated kinase) | 2 | -0.455 | inactive |

The listing continues.
LIMK2 (LIM domain kinase 2) #1 showed log2 vehicle/camptothecin viability -0.214; inactive.
Knock-down of LIMK2 (LIM domain kinase 2) #2 came out at: log2 vehicle/camptothecin viability 0.0371; inactive.
Silencing of LIMK2 (LIM domain kinase 2) #3 resulted in: log2 vehicle/camptothecin viability -0.175; inactive.
LIMK2 (LIM domain kinase 2) #4 gave log2 vehicle/camptothecin viability -0.28; inactive.
Against UBL4A (ubiquitin like 4A) #1, the entry reads log2 vehicle/camptothecin viability -0.7; inactive.
Knock-down of UBL4A (ubiquitin like 4A) #2 gave: log2 vehicle/camptothecin viability -0.336; inactive.
For UBL4A (ubiquitin like 4A) #3, the entry reads log2 vehicle/camptothecin viability -0.113; inactive.
With knock-down of UBL4A (ubiquitin like 4A) #4 the results were log2 vehicle/camptothecin viability -0.0376; inactive.
Depletion of BAZ2B (bromodomain adjacent to zinc finger domain 2B) #1 resulted in: log2 vehicle/camptothecin viability 1.21; inactive.
Depletion of BAZ2B (bromodomain adjacent to zinc finger domain 2B) #2 came out at: log2 vehicle/camptothecin viability -0.464; inactive.
For BAZ2B (bromodomain adjacent to zinc finger domain 2B) #3, the entry reads log2 vehicle/camptothecin viability 0.222; inactive.
For BAZ2B (bromodomain adjacent to zinc finger domain 2B) #4, the values are log2 vehicle/camptothecin viability 0.138; inactive.
Against LIN7B (lin-7 cell polarity scaffold B) #1, the entry reads log2 vehicle/camptothecin viability -0.32; inactive.
With knock-down of LIN7B (lin-7 cell polarity scaffold B) #2, the screen gave log2 vehicle/camptothecin viability -0.279; inactive.
After knock-down of LIN7B (lin-7 cell polarity scaffold B) #3, the screen gave log2 vehicle/camptothecin viability 0.132; inactive.
Silencing of LIN7B (lin-7 cell polarity scaffold B) #4 resulted in: log2 vehicle/camptothecin viability -0.0511; inactive.
Knock-down of RDH11 (retinol dehydrogenase 11) #1 came out at: log2 vehicle/camptothecin viability 0.0395; inactive.
RDH11 (retinol dehydrogenase 11) #2 scored log2 vehicle/camptothecin viability -0.0998; inactive.
Knock-down of RDH11 (retinol dehydrogenase 11) #3 resulted in: log2 vehicle/camptothecin viability -0.0283; inactive.
Depletion of RDH11 (retinol dehydrogenase 11) #4 came out at: log2 vehicle/camptothecin viability -0.372; inactive.
Silencing of MTNR1B (melatonin receptor 1B) #1 resulted in: log2 vehicle/camptothecin viability -0.0854; inactive.
After knock-down of MTNR1B (melatonin receptor 1B) #2, the record shows log2 vehicle/camptothecin viability -0.0663; inactive.
MTNR1B (melatonin receptor 1B) #3 showed log2 vehicle/camptothecin viability -0.332; inactive.
Against MTNR1B (melatonin receptor 1B) #4, the entry reads log2 vehicle/camptothecin viability -0.124; inactive.
